Some of the results follow.

Sequences of proteins named here, by UniProt entry; tags and fusion partners are left off.
UniProt Q0JBA9, entry or part of it: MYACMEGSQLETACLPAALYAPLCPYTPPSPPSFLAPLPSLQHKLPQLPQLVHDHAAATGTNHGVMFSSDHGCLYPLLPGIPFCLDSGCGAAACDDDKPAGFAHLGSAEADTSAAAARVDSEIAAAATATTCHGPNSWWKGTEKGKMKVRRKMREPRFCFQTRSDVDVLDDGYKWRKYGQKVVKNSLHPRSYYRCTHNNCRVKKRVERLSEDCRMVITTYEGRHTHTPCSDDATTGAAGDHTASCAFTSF

The target of this assay is OsWRKY34 (Oryza sativa, UniProt Q0JBA9 1-250). As to the kind of experiment: protein-binding microarray (RPBM); PBS, 2% BSA, 51.3 ng/ul salmon testes DNA, 50 uM zinc acetate, 200 nM TF, 25 C, 1 h; high values mean tight binding. As to conditions: protein: recombinant; tags: N-terminal polyhistidine and DsRed monomer fusion (pET32a); label: CyDye5-dUTP incorporated in the synthesized complementary strand; 3' TTTTT single-stranded linker to array surface; dsDNA, one strand shown. The gist of the method: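 A custom Agilent array was converted to double-stranded form by primer extension with Cy5-dUTP and blocked with 2% BSA. Protein at 200 nM in PBS with 2% BSA, salmon testes DNA and 50 µM zinc acetate was applied for 1 h at 25 °C, followed by washing. The proteins were polyhistidine–DsRed N-terminal fusions of transcription factors, expressed in E. coli BL21-CodonPlus and Ni–NTA-purified. The binding signal is per-feature fluorescence intensity (arbitrary units) from an Axon 4000B scanner.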
“GACAAAAGCAACCCCACTCCTCCTACCTGTCCCCGCACAACGGAGTCACCTAGTGCAG”: the binding signal was 8090 fluorescence intensity (a.u.).
To “AGGATATGTCACCCAGTACTAGTTGGTTTTTTATGGGACGCGGAGTCACCTAGTGCAG” belongs 9190 fluorescence intensity (a.u.); to “ATCGTCCGTCACCACGTGCAACCCTATCGCCGCTGCCGGCCGGAGTCACCTAGTGCAG”, 10500 fluorescence intensity (a.u.); to “TATCACGCGCTCCACCCTATTCCGTCGCTGTTTCTGTTTGCGGAGTCACCTAGTGCAG”, 8360 fluorescence intensity (a.u.).
With “TTTGCCCTTGACCACCGCCGCCGCCTCCGCCTCCGCCGATCGGAGTCACCTAGTGCAG”, the binding signal is 10700 fluorescence intensity (a.u.).
The value for “CAATCTCGGCGGATCACTCTCATACCCCATCGGTCCATCCCGGAGTCACCTAGTGCAG” was 8740 fluorescence intensity (a.u.); that for “CGCTGGCACAATTGCACGCTTGCACCTCTCAGTTCGTTTCCGGAGTCACCTAGTGCAG” was 9480 fluorescence intensity (a.u.).
On to “ATCCACTTATATATACACACATTTGTAATTTGTATCTATACGGAGTCACCTAGTGCAG”, for which the binding signal is 8270 fluorescence intensity (a.u.).
As to “CGCCGCTGCCTTCACGCGCCCAGCCGGCAGCCACCCAGGCCGGAGTCACCTAGTGCAG”, the binding signal was 8180 fluorescence intensity (a.u.).
Turning to “GCTAGTTCTTGCATGAGAGCCAACATCCTTGATATTTTGTCGGAGTCACCTAGTGCAG”, the binding signal is 8570 fluorescence intensity (a.u.).
To “GCGGAGGCAGGGAGGGTTTTGGAATTTTCGGCCGCCGTTGCGGAGTCACCTAGTGCAG” belongs 10100 fluorescence intensity (a.u.); to “TGTAGTAAGTTTTCTGTTGTGCACAAGCGTTCAAGCGTCGCGGAGTCACCTAGTGCAG”, 8090 fluorescence intensity (a.u.).
As to “ACCTGACGCCTCGCCCGGGCTTCTACGTCGCCTGCATTCCCGGAGTCACCTAGTGCAG”, the binding signal was 11000 fluorescence intensity (a.u.).
The value for “TCCTTCCGCGCTCGCCGCCCCTTTCGTGCTCGCCACCACACGGAGTCACCTAGTGCAG” was 10400 fluorescence intensity (a.u.); that for “TGGCGACAGTCGGGAGGGTGGGAGCTATAGGGGCTATCGCCGGAGTCACCTAGTGCAG” was 9770 fluorescence intensity (a.u.); that for “TCGTTATACTTCCCTTTATTTCTCATCTTTTCTAATCCAACGGAGTCACCTAGTGCAG” was 8320 fluorescence intensity (a.u.).
Consider “GGTGCTGTCTATGTCTACTCTTTTCCGCAGCAATACCTATCGGAGTCACCTAGTGCAG”, for which the binding signal is 9300 fluorescence intensity (a.u.).
The value for “TGTGGTGGGTGATAGGGAATGGGAGGTTTACAGGGTGCACCGGAGTCACCTAGTGCAG” was 8280 fluorescence intensity (a.u.).
To “CTGCCGGCCTCCTTGCAGCAACCCTTCTTCTTCTTCTTCTCGGAGTCACCTAGTGCAG” belongs 9510 fluorescence intensity (a.u.).
Regarding “CCTTATATCTTGTTTAGATACCTTATTTGTCACCTTTTGACGGAGTCACCTAGTGCAG”, the binding signal is 9620 fluorescence intensity (a.u.).
In the case of “GTCGTCTCATACCAATCGTGCGGCGGCGGCGGCGGGGATGCGGAGTCACCTAGTGCAG”, the binding signal is 10400 fluorescence intensity (a.u.).
To “ATTTTGTACTATAAGTTCATATACAGTCCTTCCATTTGTCCGGAGTCACCTAGTGCAG” belongs 8120 fluorescence intensity (a.u.); to “CTCTAGGAAAGCTCTGTTTCTTGTGTTCTGTTACTCTTATCGGAGTCACCTAGTGCAG”, 9740 fluorescence intensity (a.u.); to “ATCTAAACGCCACGAAGTACGAAAACCAAGTCAACGCTGCCGGAGTCACCTAGTGCAG”, 9860 fluorescence intensity (a.u.).
The value for “GTGCAGTTTATACATTAACATGTTAATCCCACTTTACTACCGGAGTCACCTAGTGCAG” was 10300 fluorescence intensity (a.u.); that for “CGCGGCCGGCTCTCCCTATACAAGCGCCACGTCGCCGGCGCGGAGTCACCTAGTGCAG” was 8460 fluorescence intensity (a.u.).
The value for “GATCGAATTCCTTCACCGCCACACCCCACCAAGAAAAGTCCGGAGTCACCTAGTGCAG” was 8640 fluorescence intensity (a.u.).
Regarding “GCAAAGGGCCGATGAATTATGGACCCGGGGTGGGGTGGGGCGGAGTCACCTAGTGCAG”, the binding signal was 16100 fluorescence intensity (a.u.).
For the sequence “CGGCACAACACAACCGCCCATAGCTGTACCGCCGCGCGCGCGGAGTCACCTAGTGCAG”, the binding signal was 10400 fluorescence intensity (a.u.).
As to “CGTGTTGACCTCGTATTCGTATGCTTGGAGGGCGCTCCACCGGAGTCACCTAGTGCAG”, the binding signal was 9090 fluorescence intensity (a.u.).
As for “CTCTCCCTCACGCTCTCCCAGTCCCAGCGCCGCCGTTTCCCGGAGTCACCTAGTGCAG”, the binding signal was 8930 fluorescence intensity (a.u.).
Turning to “CATTTTCTACTCGTGCCATATGCTCTAGATCCCACATAACCGGAGTCACCTAGTGCAG”, the binding signal is 10100 fluorescence intensity (a.u.).
To “TTGGTTTGATCCATGGTTTTGTTATGTTCAGTCCACCTTGCGGAGTCACCTAGTGCAG” belongs 8040 fluorescence intensity (a.u.); to “CACCTGACCCATTCTTGCTTACCTTATATTTAGCATACTCCGGAGTCACCTAGTGCAG”, 8160 fluorescence intensity (a.u.); to “CTCGGGGTGTTGGATTTGTTCACTGCAGCGGCTTTGCCGCCGGAGTCACCTAGTGCAG”, 10500 fluorescence intensity (a.u.).
Take “ATGCCTCTCATTGTTGATGCTTCTCTTCCTCGTTTTTGTTCGGAGTCACCTAGTGCAG”: the binding signal is 10500 fluorescence intensity (a.u.).
To “GGTGGTGGGTAGGTGCTGTTCTTATTTGGATCCTAAGACTCGGAGTCACCTAGTGCAG” belongs 12500 fluorescence intensity (a.u.); to “AAAGAAAATTTTCTAAGAGGTTGGAGTTCTTGCTAAATTTCGGAGTCACCTAGTGCAG”, 8500 fluorescence intensity (a.u.).
To “CACACCATCAATCACACGTACGAGCAGTTTCCGCTTCTTTCGGAGTCACCTAGTGCAG” belongs 8290 fluorescence intensity (a.u.); to “TGCGTTGACTTTATCTTCAAATTAATTATGTGCTAATAGGCGGAGTCACCTAGTGCAG”, 22300 fluorescence intensity (a.u.).
To “CTGCCACTCTTTTATCTCTATGGATGCAAGCAGGATGGGTCGGAGTCACCTAGTGCAG” belongs 9310 fluorescence intensity (a.u.); to “CCCGTGGCGTCTGCCGGTGCGCGTCTTGTGTGACTCCTACCGGAGTCACCTAGTGCAG”, 8090 fluorescence intensity (a.u.).

Values taken from article PMC7819943, “Rice protein-binding microarrays: a tool to detect cis-acting elements near promoter regions in rice”.
